No constants are given. Whether binding was seen depends on the method and setting. Some results given as binding are weak or reduced against the parent protein; the word gives no strength. For some assays here: Tags and fused reporters may be left off the sequences shown.
Experiments:
[1] = molecular target: T1, vasoactive intestinal peptide receptor 2 (YFP PCA fragment fusion) (UniProt P41587); test: YFP PCA, transient transfection in HEK cells, fluorescence microscopy
T1 sequence (looked up): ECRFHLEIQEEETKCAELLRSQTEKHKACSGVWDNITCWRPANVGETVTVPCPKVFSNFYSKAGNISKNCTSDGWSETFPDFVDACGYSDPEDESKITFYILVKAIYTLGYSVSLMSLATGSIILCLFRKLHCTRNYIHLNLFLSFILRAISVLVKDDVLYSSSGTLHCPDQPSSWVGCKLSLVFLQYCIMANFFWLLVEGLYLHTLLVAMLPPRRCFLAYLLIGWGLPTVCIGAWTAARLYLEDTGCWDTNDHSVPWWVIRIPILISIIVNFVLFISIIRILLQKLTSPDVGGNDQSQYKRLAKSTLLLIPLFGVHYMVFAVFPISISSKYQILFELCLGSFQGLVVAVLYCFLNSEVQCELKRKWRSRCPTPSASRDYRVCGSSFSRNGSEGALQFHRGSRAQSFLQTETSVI

Sequences of proteins named here, by UniProt entry; tags and fusion partners are left off. Residues count along the entry.
UniProt Q9ULV1, residues 37-537: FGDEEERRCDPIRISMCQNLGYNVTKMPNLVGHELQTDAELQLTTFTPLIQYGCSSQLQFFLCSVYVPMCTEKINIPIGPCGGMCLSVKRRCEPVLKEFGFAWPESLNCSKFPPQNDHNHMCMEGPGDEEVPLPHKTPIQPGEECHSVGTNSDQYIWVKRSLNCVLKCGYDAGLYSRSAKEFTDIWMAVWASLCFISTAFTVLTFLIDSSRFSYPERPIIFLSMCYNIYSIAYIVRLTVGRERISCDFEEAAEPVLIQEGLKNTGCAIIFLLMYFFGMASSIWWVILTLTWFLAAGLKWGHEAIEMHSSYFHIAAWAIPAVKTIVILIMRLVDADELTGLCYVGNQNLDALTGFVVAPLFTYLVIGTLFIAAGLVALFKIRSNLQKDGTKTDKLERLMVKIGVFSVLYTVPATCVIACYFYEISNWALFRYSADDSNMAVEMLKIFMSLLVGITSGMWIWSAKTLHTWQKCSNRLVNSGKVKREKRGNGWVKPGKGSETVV
UniProt P62873: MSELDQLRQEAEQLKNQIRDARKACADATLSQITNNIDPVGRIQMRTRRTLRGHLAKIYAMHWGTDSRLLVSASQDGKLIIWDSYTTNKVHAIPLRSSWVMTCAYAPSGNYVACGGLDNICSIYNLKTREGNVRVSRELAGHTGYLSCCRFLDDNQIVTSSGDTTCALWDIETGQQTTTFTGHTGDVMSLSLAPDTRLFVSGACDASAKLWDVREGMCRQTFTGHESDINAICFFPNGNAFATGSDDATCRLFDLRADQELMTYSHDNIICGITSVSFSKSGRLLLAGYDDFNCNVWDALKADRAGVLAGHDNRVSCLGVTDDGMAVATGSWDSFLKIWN
UniProt P25098: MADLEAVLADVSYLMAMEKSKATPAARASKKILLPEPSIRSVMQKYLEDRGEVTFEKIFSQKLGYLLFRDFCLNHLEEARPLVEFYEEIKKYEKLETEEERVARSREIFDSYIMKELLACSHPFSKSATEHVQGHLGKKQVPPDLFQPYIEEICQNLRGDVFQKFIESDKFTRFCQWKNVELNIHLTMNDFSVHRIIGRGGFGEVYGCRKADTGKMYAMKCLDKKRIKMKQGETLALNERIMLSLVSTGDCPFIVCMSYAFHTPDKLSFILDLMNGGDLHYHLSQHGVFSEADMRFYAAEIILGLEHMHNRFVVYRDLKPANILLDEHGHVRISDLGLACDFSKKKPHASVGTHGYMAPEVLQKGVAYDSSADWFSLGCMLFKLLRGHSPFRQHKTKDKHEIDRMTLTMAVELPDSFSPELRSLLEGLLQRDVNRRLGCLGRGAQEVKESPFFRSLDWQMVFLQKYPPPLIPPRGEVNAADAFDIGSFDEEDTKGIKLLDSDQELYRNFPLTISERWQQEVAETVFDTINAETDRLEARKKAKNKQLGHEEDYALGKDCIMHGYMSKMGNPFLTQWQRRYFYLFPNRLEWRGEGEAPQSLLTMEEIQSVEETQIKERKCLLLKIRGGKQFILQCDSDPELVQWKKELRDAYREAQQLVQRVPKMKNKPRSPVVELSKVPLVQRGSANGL

[2] = molecular target: T1, vasoactive intestinal peptide receptor 2 (YFP PCA fragment fusion); test: YFP PCA, transient transfection in HEK cells, fluorescence micrographs (FIG. 13 legend)
[3] = molecular target: Frizzled homolog 4 (YFP PCA fragment fusion) (UniProt Q9ULV1); test: YFP PCA, transient transfection in HEK cells, fluorescence microscopy
[4] = molecular target: Frizzled homolog 4 (YFP PCA fragment fusion) (UniProt Q9ULV1); test: YFP PCA, transient transfection in HEK cells, fluorescence micrographs (FIG. 13 legend)
[5] = molecular target: Chemokine Receptor 5 (YFP PCA fragment fusion) (UniProt P51681); test: YFP PCA, transient transfection in HEK cells, fluorescence microscopy
[6] = molecular target: Chemokine Receptor 5 (YFP PCA fragment fusion) (UniProt P51681); test: YFP PCA, transient transfection in HEK cells, fluorescence micrographs (FIG. 13 legend)

binding [3]	binding [4]	also measured	Molecule
		binding [1]: binds; binding [2]: binds	G-beta-1 (YFP PCA fragment fusion, Example 7) (from UniProt P62873 1-340)
binds	binds		GRK2 (YFP PCA fragment fusion) (from UniProt P25098 1-689) (enzyme)
		binding [5]: binds; binding [6]: binds	PKCalpha (YFP PCA fragment fusion) (from UniProt P17252 1-672) (enzyme)
binds	binds		RGS2 (YFP PCA fragment fusion) (protein, UniProt P41220 1-211, looked up, not shown: large carriers) MQSAMFLAVQHDCRPMDKSAGSGHKSEEKREKMKRTLLKDWKTRLSYFLQNSSTPGKPKTGKKSKQQAFIKPSPEEAQLWSEAFDELLASKYGLAAFRAFLKSEFCEENIEFWLACEDFKKTKSPQKLSSKARKIYTDFIEKEAPKEINIDFQTKTLIAQNIQEATSGCFTTAQKRVYSLMENNSYPRFLESEFYQDLCKKPQITTEPHAT

Source: US7488583B2, “Fragment complementation assays for G-protein-coupled receptors and their signaling pathways” (Odyssey Thera, Inc., priority 2003, dated 2009)
